The list shows a part of the results. Further columns of the screen follow, without active or inactive calls. The list favours compounds with an active or inconclusive main result. Potencies come from curve fits of mixed quality, noted in brackets.
Assay: qHTS Assay for Lipid Storage Modulators in Drosophila S3 Cells;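 for cell number change: cells counted by Cell Tracker Red CMTPX staining in the red channel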
Settings: BODIPY lipid droplet fluorescence, 18-24 h; for cell number change: measured here: cell count max response, cells fed with added oleic acid
How it was run: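 Laser-scanning cytometry quantifies lipid droplet accumulation (500–530 nm total intensity; droplet/cell object ratio) in oleic acid-fed (400 uM added) Drosophila S3 cells treated with a concentration series. 20 uM Triacsin C defined 100% inhibition.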

[1] = measured here: lipid fluorescence (Fed channel) AC50, cells fed with added oleic acid
[2] = measured here: cell number channel AC50, cells fed with added oleic acid

SMILES | cell number change [%] | AC50 [1] | AC50 [2]
N#Cc1cccc(CS(=O)(=O)c2ccc(Cl)cc2)c1 | -19.4 | – | –
CC(=O)N1c2ccc(S(=O)(=O)N(C)Cc3ccccc3)cc2CC1C (stereo unspecified) | -9.14 | 5.17 µM [falling, single point] | –
COc1cccc(NC(=O)CSc2nc3c(oc4ccccc43)c(=O)[nH]2)c1 | -43.6 | 18.4 µM [rising, single point] | 0.731 µM [falling, full curve, poor fit]
C=CCc1cc(S(=O)(=O)c2ccc(O)c(CC=C)c2)ccc1O | -4.72 | 29.1 µM [rising, single point] | –
CCC(=Cc1ccc(CC)cn1)CC | 3 | 29.1 µM [rising, single point] | –
Clc1ccc(CNC2CCCC2)cc1 | – | 29.1 µM [falling, single point] | –
CN(CC(=O)Nc1ccc(Cl)c(C(F)(F)F)c1)C(=O)c1cccnc1Sc1ccccc1 | – | – | 0.0184 µM [rising, full curve, poor fit]
COc1ccc(S(=O)(=O)N2CCCCC2)cc1NC(=O)[C@@H]1CCCN1C(=O)c1cccs1 | 4.3 | – | –
Cc1noc(C)c1COC(=O)c1ccccc1Sc1ccccc1C#N | -41.5 | – | 14.6 µM [falling, single point]
O=C(Cc1c[nH]c2ccccc12)NCC(=O)Nc1ccc(F)c(F)c1F | 3.87 | 6.51 µM [falling, single point] | –
Cc1oc(C)c2c(=O)ccc3c(c12)OC(N)=C(C#N)C3c1ccc(F)cc1 (stereo unspecified) | -19.2 | 7.31 µM [falling, single point] | –
COc1ccc(-c2nnc(SCC(=O)c3cccs3)o2)cc1 | -6.53 | 1.16 µM [rising, full curve, poor fit] | –
COc1cc(NS(=O)(=O)c2ccc(N/C=C\C(=O)c3ccc(OC)c(OC)c3)cc2)nc(OC)n1 | 6.16 | 2.91 µM [rising, partial curve] | –
CC1(C)CC(C2N3CC4(C)CN2CC(C)(C3)C4=O)CCO1 (stereo unspecified) | -9.15 | 32.6 µM [falling, single point] | 0.103 µM [falling, full curve, poor fit]
c1ccc(-c2ncc3c(ccc4ccccc43)n2)cc1 | 42.1 | – | 32.6 µM [rising, partial curve, poor fit]
S=C(NCc1cccs1)Nc1ccccc1Cl | -11.5 | – | –
c1coc(CN2CN=C(Nc3nc4ccccc4s3)NC2)c1 | 24.4 | 6.51 µM [falling, single point] | –
O=C(NCc1ccc(Cl)cc1)C1CCCN(C(=O)c2ccc(Cl)cc2)C1 (stereo unspecified) | -13 | – | –
C#CCNc1nc(C)nc2c1nnn2Cc1ccccc1F | -9.29 | 0.731 µM [rising, partial curve] | –
COc1ccccc1C(=O)NC(CCSC)C(=O)NCc1ccncc1 (stereo unspecified) | 11 | 1.64 µM [rising, partial curve] | –

SMILES | cell number change [%] | AC50 [1] | AC50 [2]
CCOc1ccc(NC(=O)c2cccc3c2C(=O)N(CCOC)C3)cc1 | – | 0.58 µM [rising, single point] | 1.84 µM [rising, partial curve]
O=C1/C(=C/c2c[nH]c3ccccc23)CCC/C1=C\c1c[nH]c2ccccc12 | -51.8 | 0.58 µM [rising, partial curve, poor fit] | 32.6 µM [falling, single point]
COCCNC(=S)NNC(=O)CSCc1ccc(Cl)cc1Cl | 19.8 | – | –
Cc1cc(=O)oc2cc(OC(C)C(=O)NCCCN3CCCC3=O)c(Cl)cc12 (stereo unspecified) | 6.19 | 3.26 µM [rising, full curve] | –
O=C1OC(Nc2nc(-c3ccc(F)cc3)cs2)c2ccccc21 (stereo unspecified) | – | 0.58 µM [rising, single point] | –
COc1ccc(S(=O)(=O)N2CCCCCC2)cc1C(=O)N(C)Cc1c(F)cccc1Cl | -12.8 | 29.1 µM [rising, single point] | –
Fc1ccccc1/C=N/Nc1nc(N2CCCCC2)nc(N2CCCCC2)n1 | -8.73 | – | –
Cc1cccc(C(=O)OCC(=O)Nc2ccc3c(c2)OCCO3)c1 | 19 | 0.0517 µM [rising, full curve, poor fit] | –
CNS(=O)(=O)c1cccc(C(=O)OCC(=O)/C=C2/N(C)c3ccccc3C2(C)C)c1 | – | 4.11 µM [falling, single point] | 1.46 µM [rising, partial curve]
Cc1ccc2oc(=O)c3cc(C(=O)NCCN4CCc5ccccc5C4)sc3c2c1 | 54.7 | 3.66 µM [rising, partial curve, poor fit] | 29.1 µM [rising, single point]
CCCn1nc(C(=O)N2CCN(S(=O)(=O)c3ccc(C)c(C)c3)CC2)c2ccccc2c1=O | – | 16.4 µM [falling, partial curve] | –
COCCNC(=S)N/N=C/c1ccccc1C(=O)O | – | – | 0.00411 µM [rising, full curve, poor fit]
COCCCNC(=S)N/N=C/c1cccc(OC)c1O | 12.3 | – | –
COc1nc2c(C)cccc2cc1-c1noc(-c2ccncc2)n1 | 10.1 | 0.651 µM [rising, full curve, poor fit] | –
Cc1ccc(C(=O)COc2cccc(NC(=O)c3ccco3)c2)cc1 | 74.1 | – | 7.31 µM [rising, partial curve]
CN(C)/C=C/C(=O)c1ccc(Oc2ccccc2)cc1 | 32.3 | 29.1 µM [rising, partial curve] | 0.013 µM [rising, full curve, poor fit]
O=C(Nc1ccc(Br)cc1)c1cccc(N2C(=O)C3C4CCC(C4)C3C2=O)c1 (stereo unspecified) | -55.6 | 29.1 µM [falling, single point] | 29.1 µM [falling, partial curve, poor fit]
CCc1cc2c(SCC(=O)N(CC)c3c(N)n(Cc4ccccc4)c(=O)[nH]c3=O)ncnc2s1 | -57 | 29.1 µM [falling, single point] | –
CC(=O)c1c(C)[nH]c(C(=O)OCC(=O)Nc2c(C)n(C)n(-c3ccccc3)c2=O)c1C | 24 | – | –

In another format: entries from further up.
CNS(=O)(=O)c1cccc(C(=O)OCC(=O)/C=C2/N(C)c3ccccc3C2(C)C)c1
  AC50 [1]: 4.11 µM [falling, single point]; AC50 [2]: 1.46 µM [rising, partial curve]
Cc1ccc2oc(=O)c3cc(C(=O)NCCN4CCc5ccccc5C4)sc3c2c1
  cell number change [%]: 54.7; AC50 [1]: 3.66 µM [rising, partial curve, poor fit]; AC50 [2]: 29.1 µM [rising, single point]
CCCn1nc(C(=O)N2CCN(S(=O)(=O)c3ccc(C)c(C)c3)CC2)c2ccccc2c1=O
  AC50 [1]: 16.4 µM [falling, partial curve]
